This is an account of results in the supplement of paper PMC12067093, “Discovery and optimisation of a covalent ligand for TRIM25 and its application to targeted protein ubiquitination” (Chemical Science, 2025).

Amino acid sequences for entries named in this document (tags omitted). A change or cut given only in a name is not applied to a line headed by its entry.
UniProt P43250, whole entry, looked up: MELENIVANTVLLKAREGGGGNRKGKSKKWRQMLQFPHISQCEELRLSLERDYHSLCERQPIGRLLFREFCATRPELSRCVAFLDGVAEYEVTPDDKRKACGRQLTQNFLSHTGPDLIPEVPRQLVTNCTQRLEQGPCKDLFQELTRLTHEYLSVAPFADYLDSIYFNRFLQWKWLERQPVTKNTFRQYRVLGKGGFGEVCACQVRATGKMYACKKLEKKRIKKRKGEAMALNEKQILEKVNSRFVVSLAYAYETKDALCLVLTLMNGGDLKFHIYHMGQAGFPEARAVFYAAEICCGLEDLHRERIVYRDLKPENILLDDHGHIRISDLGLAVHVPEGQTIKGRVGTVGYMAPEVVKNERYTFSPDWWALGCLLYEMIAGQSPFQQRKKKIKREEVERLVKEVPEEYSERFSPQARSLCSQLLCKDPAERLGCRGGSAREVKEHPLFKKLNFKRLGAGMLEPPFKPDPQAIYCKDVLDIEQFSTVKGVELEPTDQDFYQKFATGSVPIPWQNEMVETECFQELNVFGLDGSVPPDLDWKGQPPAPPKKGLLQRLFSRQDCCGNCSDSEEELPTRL
UniProt P00390: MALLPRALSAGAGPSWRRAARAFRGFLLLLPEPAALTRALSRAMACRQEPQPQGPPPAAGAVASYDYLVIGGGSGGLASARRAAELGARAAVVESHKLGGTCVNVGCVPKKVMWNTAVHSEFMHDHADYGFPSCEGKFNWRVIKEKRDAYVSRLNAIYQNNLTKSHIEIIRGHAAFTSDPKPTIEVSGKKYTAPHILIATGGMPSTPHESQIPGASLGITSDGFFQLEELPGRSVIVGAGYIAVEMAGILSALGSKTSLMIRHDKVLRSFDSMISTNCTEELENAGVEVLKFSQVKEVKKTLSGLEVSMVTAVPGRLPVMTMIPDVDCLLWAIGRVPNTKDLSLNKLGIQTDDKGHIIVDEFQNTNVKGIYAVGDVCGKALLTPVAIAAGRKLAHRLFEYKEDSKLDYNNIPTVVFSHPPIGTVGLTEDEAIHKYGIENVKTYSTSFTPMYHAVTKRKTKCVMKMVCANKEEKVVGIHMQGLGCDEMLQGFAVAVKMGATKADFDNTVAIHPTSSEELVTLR
UniProt P25098: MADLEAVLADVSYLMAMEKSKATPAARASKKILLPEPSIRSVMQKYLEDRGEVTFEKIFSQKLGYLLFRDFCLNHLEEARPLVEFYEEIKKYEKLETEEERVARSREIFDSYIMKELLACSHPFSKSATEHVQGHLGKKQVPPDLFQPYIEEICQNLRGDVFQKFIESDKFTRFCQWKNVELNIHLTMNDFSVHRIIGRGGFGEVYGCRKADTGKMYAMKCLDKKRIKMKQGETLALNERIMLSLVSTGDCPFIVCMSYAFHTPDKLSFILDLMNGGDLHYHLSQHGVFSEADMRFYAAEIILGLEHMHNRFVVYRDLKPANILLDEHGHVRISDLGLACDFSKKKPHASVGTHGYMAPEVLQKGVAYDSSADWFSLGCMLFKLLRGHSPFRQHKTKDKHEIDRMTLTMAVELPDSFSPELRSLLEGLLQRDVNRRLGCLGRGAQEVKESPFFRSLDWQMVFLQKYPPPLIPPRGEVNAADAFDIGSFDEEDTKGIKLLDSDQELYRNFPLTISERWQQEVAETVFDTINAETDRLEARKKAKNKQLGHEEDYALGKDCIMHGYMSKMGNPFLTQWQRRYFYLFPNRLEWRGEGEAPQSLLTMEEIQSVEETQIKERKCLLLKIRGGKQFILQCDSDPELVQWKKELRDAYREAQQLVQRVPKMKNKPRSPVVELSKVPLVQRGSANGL
UniProt Q7Z4H7: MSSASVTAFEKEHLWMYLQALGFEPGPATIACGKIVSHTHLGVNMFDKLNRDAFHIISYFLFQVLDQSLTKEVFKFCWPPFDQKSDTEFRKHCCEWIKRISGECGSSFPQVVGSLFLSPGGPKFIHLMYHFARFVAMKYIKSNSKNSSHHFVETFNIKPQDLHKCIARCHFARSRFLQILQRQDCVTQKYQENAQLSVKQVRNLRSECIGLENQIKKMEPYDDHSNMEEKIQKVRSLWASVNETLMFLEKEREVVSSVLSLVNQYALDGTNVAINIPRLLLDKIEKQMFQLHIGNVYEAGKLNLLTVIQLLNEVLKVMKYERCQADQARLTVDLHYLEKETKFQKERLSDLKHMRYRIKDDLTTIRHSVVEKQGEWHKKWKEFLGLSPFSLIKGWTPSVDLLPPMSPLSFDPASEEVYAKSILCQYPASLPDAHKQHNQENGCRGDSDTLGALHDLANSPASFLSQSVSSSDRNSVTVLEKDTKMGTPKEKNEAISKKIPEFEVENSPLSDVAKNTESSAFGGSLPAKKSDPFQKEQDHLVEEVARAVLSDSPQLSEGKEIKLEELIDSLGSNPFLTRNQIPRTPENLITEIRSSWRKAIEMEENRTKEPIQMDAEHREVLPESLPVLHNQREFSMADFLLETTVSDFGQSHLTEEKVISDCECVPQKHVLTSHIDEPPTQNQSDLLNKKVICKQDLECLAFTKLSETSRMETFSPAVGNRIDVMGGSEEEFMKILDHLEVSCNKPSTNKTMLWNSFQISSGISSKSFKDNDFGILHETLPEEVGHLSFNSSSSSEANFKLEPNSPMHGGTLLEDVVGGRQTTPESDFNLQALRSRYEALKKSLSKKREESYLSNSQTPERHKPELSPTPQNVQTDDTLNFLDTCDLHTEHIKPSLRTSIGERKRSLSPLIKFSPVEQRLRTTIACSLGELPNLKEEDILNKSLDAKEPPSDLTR
UniProt P21266: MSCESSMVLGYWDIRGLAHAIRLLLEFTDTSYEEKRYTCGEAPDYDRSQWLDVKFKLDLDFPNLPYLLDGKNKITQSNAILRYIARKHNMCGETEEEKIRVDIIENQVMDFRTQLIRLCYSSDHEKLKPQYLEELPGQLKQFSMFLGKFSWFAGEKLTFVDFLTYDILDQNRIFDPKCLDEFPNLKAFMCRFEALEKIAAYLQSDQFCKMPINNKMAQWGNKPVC
UniProt P57764: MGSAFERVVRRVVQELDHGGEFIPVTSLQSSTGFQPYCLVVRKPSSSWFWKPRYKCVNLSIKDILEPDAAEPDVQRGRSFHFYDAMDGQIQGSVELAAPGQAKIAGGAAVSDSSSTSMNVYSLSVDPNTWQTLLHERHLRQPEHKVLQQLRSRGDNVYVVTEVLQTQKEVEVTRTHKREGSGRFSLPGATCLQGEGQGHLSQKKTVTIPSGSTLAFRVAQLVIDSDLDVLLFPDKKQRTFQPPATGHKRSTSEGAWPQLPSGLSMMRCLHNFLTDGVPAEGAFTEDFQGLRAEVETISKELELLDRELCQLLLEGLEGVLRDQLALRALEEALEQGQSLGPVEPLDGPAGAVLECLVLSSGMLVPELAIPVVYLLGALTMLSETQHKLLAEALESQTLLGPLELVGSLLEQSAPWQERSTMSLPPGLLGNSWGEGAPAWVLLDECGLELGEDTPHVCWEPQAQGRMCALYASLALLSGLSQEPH
UniProt Q8WW33: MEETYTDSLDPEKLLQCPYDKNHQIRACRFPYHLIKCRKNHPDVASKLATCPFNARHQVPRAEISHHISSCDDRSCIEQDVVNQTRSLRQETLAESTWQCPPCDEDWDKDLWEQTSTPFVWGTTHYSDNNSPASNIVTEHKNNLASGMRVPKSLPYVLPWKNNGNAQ
UniProt Q9NYZ3: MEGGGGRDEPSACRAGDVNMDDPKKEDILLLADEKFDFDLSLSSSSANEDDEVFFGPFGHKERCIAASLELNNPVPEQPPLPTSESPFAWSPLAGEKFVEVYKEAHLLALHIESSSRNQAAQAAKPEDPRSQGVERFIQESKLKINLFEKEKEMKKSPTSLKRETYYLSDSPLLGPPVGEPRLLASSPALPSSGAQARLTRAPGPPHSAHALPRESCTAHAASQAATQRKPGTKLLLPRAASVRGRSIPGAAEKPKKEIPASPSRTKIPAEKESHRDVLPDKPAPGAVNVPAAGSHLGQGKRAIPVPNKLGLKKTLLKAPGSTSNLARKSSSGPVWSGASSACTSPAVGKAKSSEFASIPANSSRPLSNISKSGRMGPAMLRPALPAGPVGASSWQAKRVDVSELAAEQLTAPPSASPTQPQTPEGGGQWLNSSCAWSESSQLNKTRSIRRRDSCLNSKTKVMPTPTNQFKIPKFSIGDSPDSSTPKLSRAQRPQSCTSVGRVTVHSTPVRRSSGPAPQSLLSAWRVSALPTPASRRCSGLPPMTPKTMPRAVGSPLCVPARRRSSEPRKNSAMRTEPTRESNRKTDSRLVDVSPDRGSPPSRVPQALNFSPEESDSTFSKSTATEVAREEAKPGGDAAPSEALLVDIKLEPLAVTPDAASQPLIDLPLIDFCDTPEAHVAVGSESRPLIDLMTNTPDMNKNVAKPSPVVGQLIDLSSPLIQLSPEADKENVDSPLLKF
UniProt A4D1E9: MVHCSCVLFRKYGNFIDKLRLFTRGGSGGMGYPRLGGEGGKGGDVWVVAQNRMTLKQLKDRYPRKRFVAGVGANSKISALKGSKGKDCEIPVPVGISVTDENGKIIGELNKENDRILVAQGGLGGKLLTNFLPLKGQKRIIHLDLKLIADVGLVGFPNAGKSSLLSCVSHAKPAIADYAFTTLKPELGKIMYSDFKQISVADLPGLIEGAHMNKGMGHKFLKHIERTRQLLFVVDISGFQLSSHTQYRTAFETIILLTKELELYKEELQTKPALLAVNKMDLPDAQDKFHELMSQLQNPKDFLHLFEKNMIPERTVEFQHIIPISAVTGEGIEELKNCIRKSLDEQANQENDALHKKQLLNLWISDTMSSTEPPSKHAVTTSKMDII
UniProt P15170, whole entry, looked up: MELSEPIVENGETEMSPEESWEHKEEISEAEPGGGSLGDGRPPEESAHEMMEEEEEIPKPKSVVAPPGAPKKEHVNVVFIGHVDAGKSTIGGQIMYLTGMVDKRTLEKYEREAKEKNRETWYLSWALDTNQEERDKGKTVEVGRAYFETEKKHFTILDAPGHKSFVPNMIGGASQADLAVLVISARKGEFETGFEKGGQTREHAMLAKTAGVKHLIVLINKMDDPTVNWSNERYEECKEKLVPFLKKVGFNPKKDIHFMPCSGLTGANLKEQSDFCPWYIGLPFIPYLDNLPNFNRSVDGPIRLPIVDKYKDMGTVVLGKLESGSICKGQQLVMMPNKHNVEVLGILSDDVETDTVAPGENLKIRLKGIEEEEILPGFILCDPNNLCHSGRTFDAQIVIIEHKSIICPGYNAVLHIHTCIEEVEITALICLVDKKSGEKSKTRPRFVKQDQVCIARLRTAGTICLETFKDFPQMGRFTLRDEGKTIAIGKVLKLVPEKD
UniProt Q9H116: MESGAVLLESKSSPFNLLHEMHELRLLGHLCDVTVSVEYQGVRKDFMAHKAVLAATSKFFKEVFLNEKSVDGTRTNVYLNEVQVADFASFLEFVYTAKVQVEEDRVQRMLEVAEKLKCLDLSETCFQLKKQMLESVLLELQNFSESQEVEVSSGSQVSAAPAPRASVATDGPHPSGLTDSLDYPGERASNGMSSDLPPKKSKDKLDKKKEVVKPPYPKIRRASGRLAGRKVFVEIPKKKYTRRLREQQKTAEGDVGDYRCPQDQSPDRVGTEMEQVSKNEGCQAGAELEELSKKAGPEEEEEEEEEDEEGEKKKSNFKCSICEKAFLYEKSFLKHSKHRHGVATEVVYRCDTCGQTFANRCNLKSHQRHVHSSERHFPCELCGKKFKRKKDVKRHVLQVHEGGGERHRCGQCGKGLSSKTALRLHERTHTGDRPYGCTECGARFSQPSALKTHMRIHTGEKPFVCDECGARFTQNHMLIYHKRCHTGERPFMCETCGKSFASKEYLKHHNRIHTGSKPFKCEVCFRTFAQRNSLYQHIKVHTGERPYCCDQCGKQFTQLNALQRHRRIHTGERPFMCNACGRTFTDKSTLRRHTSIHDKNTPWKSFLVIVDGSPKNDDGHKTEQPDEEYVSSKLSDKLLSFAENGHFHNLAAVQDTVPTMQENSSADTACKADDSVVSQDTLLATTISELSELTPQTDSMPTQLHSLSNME
UniProt Q9BT25: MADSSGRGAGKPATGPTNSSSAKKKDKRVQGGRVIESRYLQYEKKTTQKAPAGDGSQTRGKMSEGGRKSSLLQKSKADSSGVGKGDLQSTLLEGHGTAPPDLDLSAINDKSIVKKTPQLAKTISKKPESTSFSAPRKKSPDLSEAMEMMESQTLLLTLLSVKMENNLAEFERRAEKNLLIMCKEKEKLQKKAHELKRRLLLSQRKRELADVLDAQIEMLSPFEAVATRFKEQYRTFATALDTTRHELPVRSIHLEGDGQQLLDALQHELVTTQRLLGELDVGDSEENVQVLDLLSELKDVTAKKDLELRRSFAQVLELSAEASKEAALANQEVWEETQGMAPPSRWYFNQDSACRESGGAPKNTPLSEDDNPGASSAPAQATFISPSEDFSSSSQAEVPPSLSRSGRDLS

Some of the results follow.

Compound in the experiment: Cc1cc(ccc1-c1ccccc1)C(=O)N1CCCN(CC1)C(=O)CCl [compound 10]
The experiment can be described thus: probe-labelled cysteine peptide fold change vs DMSO (competition) (log2 fold change); higher = less target engagement (more negative = stronger competition). To be noted: THP-1, incubation time: 4 h.
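Also: competitive profiling in live THP-1 cells: cysteine peptides tagged with an iodoacetamide desthiobiotin (IA-DTB) probe, intensity after compound treatment relative to DMSO-treated cells.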

Take “GRK6_P43250_57_DYHSLCER (UniProt P43250)”: the “probe-labelled cysteine peptide fold change” value runs as follows: (10 µM) -0.185; (50 µM) -0.029.
Taken in the same sequence, the figures for “GSR_P00390_107_LGGTCVNVGCVPK (UniProt P00390)” were -0.0657 and -0.055.
For “GRK2_P25098_439_RLGCLGR (UniProt P25098)”, the “probe-labelled cysteine peptide fold change” value is, setting by setting: (10 µM) -0.198; (50 µM) -0.117.
As for “HAUS6_Q7Z4H7_743_ILDHLEVSCNKPSTNK (UniProt Q7Z4H7)”, the “probe-labelled cysteine peptide fold change” value was -0.0162 (10 µM) and -0.362 (50 µM).
On the same counts, the results for “GSS_P48637_409_IEPEPFENCLLR (UniProt P48637)” are -0.0768 and 0.184.
In the case of “GSTM3_P21266_39_YTCGEAPDYDR (UniProt P21266)”, the “probe-labelled cysteine peptide fold change” value was -0.0298 (10 µM) and 0.0205 (50 µM).
For the target “GSDMD_P57764_467_MCALYASLALLSGLSQEPH (UniProt P57764)”, the “probe-labelled cysteine peptide fold change” value reads like this: (10 µM) 0.184; (50 µM) 0.155.
Turning to “GTSF1_Q8WW33_51_LATCPFNAR (UniProt Q8WW33)”, the “probe-labelled cysteine peptide fold change” value was 0.0982 (10 µM) and -0.65 (50 µM).
On to “GTF3C4_Q9UKN8_376_CVPLYHPYQK (UniProt Q9UKN8)”, for which the “probe-labelled cysteine peptide fold change” value reads like this: (10 µM) 0.0788; (50 µM) 0.144.
Take “GTSE1_Q9NYZ3_436_DSCLNSK (UniProt Q9NYZ3)”: the “probe-labelled cysteine peptide fold change” value reads like this: (10 µM) -0.0541; (50 µM) -0.12.
As to “GSR_P00390_467_MVCANKEEK (UniProt P00390)”, the “probe-labelled cysteine peptide fold change” value reads like this: (10 µM) 0.0276; (50 µM) -0.195.
Consider “GTPBP10_A4D1E9_167_SSLLSCVSHAK (UniProt A4D1E9)”, for which the “probe-labelled cysteine peptide fold change” value is, setting by setting: (10 µM) -0.0953; (50 µM) 0.038.
As for “GSPT1_P15170_327_LESGSICK (UniProt P15170)”, the “probe-labelled cysteine peptide fold change” value reads like this: (10 µM) 0.0394; (50 µM) -0.0486.
“GZF1_Q9H116_282_NEGCQAGAELEELSK (UniProt Q9H116)”: the “probe-labelled cysteine peptide fold change” value was -0.0689 (10 µM) and 0.0268 (50 µM).
On to “HAUS8_Q9BT25_182_NLLIMCK (UniProt Q9BT25)”, for which the “probe-labelled cysteine peptide fold change” value (10 µM) was -0.126 and the “probe-labelled cysteine peptide fold change” value (50 µM) was -0.141.
